Laboratory results published in publication PMC11705485.
No constants are given. Whether binding was seen depends on the method and setting. In cells and extracts the contact can be indirect. Some results given as binding are weak or reduced against the parent protein; the word gives no strength.

By UniProt entry, the sequences of proteins in these tests, tags left out. Residues count along the entry.
UniProt B5DFG1, residues 78-580: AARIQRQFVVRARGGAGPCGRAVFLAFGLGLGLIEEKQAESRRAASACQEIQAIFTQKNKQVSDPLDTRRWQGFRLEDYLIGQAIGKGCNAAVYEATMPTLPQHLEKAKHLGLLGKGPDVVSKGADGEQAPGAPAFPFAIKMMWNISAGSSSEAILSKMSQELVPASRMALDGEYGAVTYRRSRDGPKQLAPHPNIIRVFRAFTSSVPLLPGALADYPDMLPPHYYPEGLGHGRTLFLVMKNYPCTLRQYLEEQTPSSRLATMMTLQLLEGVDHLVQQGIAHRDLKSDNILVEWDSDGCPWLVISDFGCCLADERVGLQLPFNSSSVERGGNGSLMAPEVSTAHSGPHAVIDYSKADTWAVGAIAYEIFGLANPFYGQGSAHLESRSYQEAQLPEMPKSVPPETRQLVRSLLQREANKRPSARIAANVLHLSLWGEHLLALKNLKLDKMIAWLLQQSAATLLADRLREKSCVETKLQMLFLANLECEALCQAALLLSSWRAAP

Target: PTEN‐induced kinase 1 (PINK1), endogenous in neonatal rat cardiomyocytes (rat (endogenous in NRCM)) (UniProt B5DFG1)
Assay: co-IP; endogenous co-IP of PINK1 and Prdx2 in NRCM

binding: binds
B1: peroxiredoxin‐2 (Prdx2), endogenous in neonatal rat cardiomyocytes (protein, UniProt P35704 1-198)
chain: MASGNAHIGKPAPDFTGTAVVDGAFKEIKLSDYRGKYVVLFFYPLDFTFVCPTEIIAFSDHAEDFRKLGCEVLGVSVDSQFTHLAWINTPRKEGGLGPLNIPLLADVTKSLSQNYGVLKNDEGIAYRGLFIIDAKGVLRQITVNDLPVGRSVDEALRLVQAFQYTDEHGEVCPAGWKPGSDTIKPNVDDSKEYFSKHN
